No constants are given. Whether binding was seen depends on the method and setting.
Biological target: kinase domain of Somatic Embryogenesis Receptor-like Kinase 1 (SERK1-KD) (Arabidopsis thaliana) (UniProt Q94AG2)
Assay: SEC; analytical gel filtration on Superdex 75 10/300 GL, last step of the purification; concentration not given; both purified

- binding: no binding
B1: kinase domain of Somatic Embryogenesis Receptor-like Kinase 1 (SERK1-KD) (domain or fragment, UniProt Q94AG2 285-625)
chain: GQLKRFSLRELQVASDGFSNKNILGRGGFGKVYKGRLADGTLVAVKRLKEERTPGGELQFQTEVEMISMAVHRNLLRLRGFCMTPTERLLVYPYMANGSVASCLRERPPSQPPLDWPTRKRIALGSARGLSYLHDHCDPKIIHRDVKAANILLDEEFEAVVGDFGLAKLMDYKDTHVTTAVRGTIGHIAPEYLSTGKSSEKTDVFGYGIMLLELITGQRAFDLARLANDDDVMLLDWVKGLLKEKKLEMLVDPDLQTNYEERELEQVIQVALLCTQGSPMERPKMSEVVRMLEGDGLAEKWDEWQKVEILREEIDLSPNPNSDWILDSTYNLHAVELSGPR

From paper PMC3517577
